The results in this text go back to patent US20020165140A1.

Sequences of proteins named here, by UniProt entry; tags and fusion partners are left off. A change or cut given only in a name is not applied to a line headed by its entry.
UniProt Q16665: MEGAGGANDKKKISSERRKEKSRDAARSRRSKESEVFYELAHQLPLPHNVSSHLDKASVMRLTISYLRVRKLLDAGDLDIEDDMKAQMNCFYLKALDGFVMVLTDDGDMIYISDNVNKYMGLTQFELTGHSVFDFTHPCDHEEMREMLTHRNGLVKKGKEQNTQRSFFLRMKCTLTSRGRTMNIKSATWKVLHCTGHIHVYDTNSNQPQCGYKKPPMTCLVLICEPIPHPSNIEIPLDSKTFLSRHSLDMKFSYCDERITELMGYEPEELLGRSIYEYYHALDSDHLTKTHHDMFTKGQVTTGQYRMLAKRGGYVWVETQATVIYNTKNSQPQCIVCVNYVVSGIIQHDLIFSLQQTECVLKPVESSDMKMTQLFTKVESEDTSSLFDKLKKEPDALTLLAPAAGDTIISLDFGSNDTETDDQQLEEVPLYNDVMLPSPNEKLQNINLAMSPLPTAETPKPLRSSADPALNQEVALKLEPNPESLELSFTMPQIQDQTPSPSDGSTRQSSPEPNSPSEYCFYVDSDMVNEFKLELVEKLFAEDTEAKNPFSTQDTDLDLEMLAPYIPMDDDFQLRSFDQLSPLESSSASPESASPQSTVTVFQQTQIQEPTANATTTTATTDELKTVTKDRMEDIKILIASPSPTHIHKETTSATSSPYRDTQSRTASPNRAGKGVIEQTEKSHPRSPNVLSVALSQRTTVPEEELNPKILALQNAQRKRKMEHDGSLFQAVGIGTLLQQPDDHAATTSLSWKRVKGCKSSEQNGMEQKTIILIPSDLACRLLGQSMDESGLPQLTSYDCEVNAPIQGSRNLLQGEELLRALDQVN
UniProt P04386: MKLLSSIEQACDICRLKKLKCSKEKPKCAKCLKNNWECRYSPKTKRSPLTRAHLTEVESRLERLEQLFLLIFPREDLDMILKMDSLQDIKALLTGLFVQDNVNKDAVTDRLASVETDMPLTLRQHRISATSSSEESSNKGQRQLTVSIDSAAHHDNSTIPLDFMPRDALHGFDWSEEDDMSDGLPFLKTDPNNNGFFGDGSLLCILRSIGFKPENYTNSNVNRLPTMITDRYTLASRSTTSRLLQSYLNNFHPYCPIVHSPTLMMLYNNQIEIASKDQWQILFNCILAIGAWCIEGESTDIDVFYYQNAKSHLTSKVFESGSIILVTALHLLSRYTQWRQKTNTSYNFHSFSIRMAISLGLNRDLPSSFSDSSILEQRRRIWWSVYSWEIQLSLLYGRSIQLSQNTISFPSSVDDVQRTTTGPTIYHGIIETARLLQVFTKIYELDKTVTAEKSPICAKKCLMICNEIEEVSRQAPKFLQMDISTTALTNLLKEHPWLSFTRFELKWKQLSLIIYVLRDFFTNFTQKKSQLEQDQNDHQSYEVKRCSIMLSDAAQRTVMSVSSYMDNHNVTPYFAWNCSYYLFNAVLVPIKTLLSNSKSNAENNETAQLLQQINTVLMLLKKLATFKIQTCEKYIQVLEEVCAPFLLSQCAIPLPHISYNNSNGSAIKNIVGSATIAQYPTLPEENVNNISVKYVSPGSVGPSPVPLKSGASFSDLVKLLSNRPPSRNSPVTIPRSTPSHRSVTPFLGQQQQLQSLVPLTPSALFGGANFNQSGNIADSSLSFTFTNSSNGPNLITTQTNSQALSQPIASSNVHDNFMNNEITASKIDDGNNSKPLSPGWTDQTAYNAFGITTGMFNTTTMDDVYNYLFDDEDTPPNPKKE

No constants are given. Whether binding was seen depends on the method and setting. For some of these results: Binding seen in cells or lysates may run through a third protein. Some entries that bind do so weakly or less than the wild type. For some of these results: Where a sequence is shown, tags or fusion partners need not be part of it.

Assay [1] has as its target hypoxia inducible factor-1α (HIF-1α), in vitro translated (UniProt Q16665). In words: coimmunoprecipitation with anti-GST antibody, in vitro translated proteins, autoradiography.
For assay [2] the target is unchanged. In words: coimmunoprecipitation with anti-GST antibody, in vitro translated proteins, autoradiography (FIG. 4a legend).
In assay [3] the target is GAL4-HIF-1α/1-330 (UniProt P04386). In words: mammalian two-hybrid assay in COS7 cells, GAL4-driven luciferase reporter. Background: Reporter assays use an easily measured gene product as a stand-in for the process of interest.
Assay [4] shares this target. In words: mammalian two-hybrid assay in COS7 cells, GAL4-driven luciferase reporter (FIG. 4c legend).

B1: glutathione S-transferase- (GST-) IPAS fusion protein (protein, not shown: a dimerising Fc or GST)
chain: MALGLQRVRSNTELRKEKSRDAARSRRSQETEVLYQLAHTLPFARGVSAHLDKASIMRLTISYLRMHRLCAAGGKRGRATGRLLPEGPGGFRHGTHRRGRHGLPVGKCQQAPGPQSVDLCSSSLIHNPTPGTNFSLELIGHSIFDFIHPCDQEELQDALTPRPNLSKKKLEAPTERHFSLRMKSTLTSRGRTLNLKAATWKVLHCSGHMRAYKPPAQTSPAGSPRSEPPLQCLVLICEAIPQLPFHDGATLGLPQEKTPISTLFTPLWKALLCLVKRWPVQVLQGKGTESSLPSWVLWALNRKNCPG
Take B1: the binding result in assay [1] and in assay [2] was “binds” throughout.

B2: VP16-IPAS (protein)
chain: MALGLQRVRSNTELRKEKSRDAARSRRSQETEVLYQLAHTLPFARGVSAHLDKASIMRLTISYLRMHRLCAAGGKRGRATGRLLPEGPGGFRHGTHRRGRHGLPVGKCQQAPGPQSVDLCSSSLIHNPTPGTNFSLELIGHSIFDFIHPCDQEELQDALTPRPNLSKKKLEAPTERHFSLRMKSTLTSRGRTLNLKAATWKVLHCSGHMRAYKPPAQTSPAGSPRSEPPLQCLVLICEAIPQLPFHDGATLGLPQEKTPISTLFTPLWKALLCLVKRWPVQVLQGKGTESSLPSWVLWALNRKNCPG
B2: the binding entry with GAL4-HIF-1α/1-330 [3] and with GAL4-HIF-1α/1-330 [4] was “binds” in each case.
